Laboratory results: PubChem BioAssay AID248 (DTP/NCI, 2004)
The list shows only some results of the screen, not a fair sample: it gathers tests that were run many times, whatever their T/C, doses with no T/C, and many T/C values between a quarter and a half above the control. Other doses and runs of a compound stand elsewhere. T/C is the treated group as % of the vehicle group. Some entries give survivors of the animals treated and no T/C: the source holds a T/C of zero for them, seemingly a mark for toxic or unscored doses. Some survivor counts are full or nearly so, which does not show that the dose was tolerated: the source hardly ever lists a survival T/C far under the control, and the zero likely stands for such cases as well. Survivors were counted at the toxicity check, usually on the fifth day, unless a day is given; later deaths do not show. Schedules are NCI's codes, taken here to give the interval after Q, in days (D) or hours (H), and the number of doses after X. Some entries were tested several times; their values stand side by side, smallest first. Where survival is the endpoint, this PubChem deposit counts one and a half times the control or more as active, and values a quarter to a half above the control carry no call in these data; other NCI protocols may use other cut-offs.

System: L1210 leukemia ip in BDF1 mice, survival T/C
Test: NCI In Vivo Anticancer Drug Screen. Data for tumor model L1210 Leukemia (intraperitoneal) in B6D2F1 (BDF1) mice
Conditions: T/C endpoint: mean survival time, higher T/C = longer survival
[1] = dose: 300.0 mg/kg/injection, schedule: Q01DX001 (ip), vehicle: saline
[2] = dose: 200.0 mg/kg/injection, schedule: Q04DX003 (ip), vehicle: saline
[3] = dose: 400.0 mg/kg/injection, schedule: Q04DX003 (ip), vehicle: saline
[4] = dose: 40.0 mg/kg/injection, schedule: Q01DX001 (ip), vehicle: carboxymethylcellulose (CMC)
[5] = dose: 100.0 mg/kg/injection, schedule: Q01DX001 (ip), vehicle: carboxymethylcellulose (CMC)
[6] = dose: 200.0 mg/kg/injection, schedule: Q01DX001 (ip), vehicle: carboxymethylcellulose (CMC)
[7] = dose: 400.0 mg/kg/injection, schedule: Q01DX001 (ip), vehicle: carboxymethylcellulose (CMC)
[8] = dose: 200.0 mg/kg/injection, schedule: Q01DX009 (ip), vehicle: saline
[9] = dose: 100.0 mg/kg/injection, schedule: Q01DX001 (ip), vehicle: saline
[10] = dose: 200.0 mg/kg/injection, schedule: Q01DX001 (ip), vehicle: saline
[11] = dose: 400.0 mg/kg/injection, schedule: Q01DX001 (ip), vehicle: saline
[12] = dose: 400.0 mg/kg/injection, schedule: Q04DX003 (ip), vehicle: Klucel (hydroxypropylcellulose) (HPC)
[13] = dose: 200.0 mg/kg/injection, schedule: Q01DX009 (ip), vehicle: saline with Tween-80
[14] = dose: 400.0 mg/kg/injection, schedule: Q01DX009 (ip), vehicle: saline with Tween-80
[15] = dose: 400.0 mg/kg/injection, schedule: Q01DX009 (ip), vehicle: saline
[16] = dose: 100.0 mg/kg/injection, schedule: Q04DX003 (ip), vehicle: saline with Tween-80
[17] = dose: 200.0 mg/kg/injection, schedule: Q04DX003 (ip), vehicle: saline with Tween-80
[18] = dose: 400.0 mg/kg/injection, schedule: Q04DX003 (ip), vehicle: saline with Tween-80
[19] = dose: 100.0 mg/kg/injection, schedule: Q01DX009 (ip), vehicle: saline

**Q.** Which results are given for `CN1C2CCCC1CC(=O)NC2` (stereo not given)?
**A.** survivor count (dose: 60.0 mg/kg/injection, schedule: Q01DX001 (ip), vehicle: saline): 0 of 6; survivor count (dose: 75.0 mg/kg/injection, schedule: Q01DX001 (ip), vehicle: saline): 2 of 6; survivor count (dose: 150.0 mg/kg/injection, schedule: Q01DX001 (ip), vehicle: saline): 0 of 6; survivor count [1]: 0 of 6

**Q.** Which survivor count [1] does the source give for `CN1CCN(Cc2cc(Cl)c3cccnc3c2O)CC1` here?
**A.** 1 of 6

**Q.** With `COC1OC(CN(CCO)CCO)C2OC(C)(C)OC12` (stereo not given) as the compound, how does the survivor count (dose: 150.0 mg/kg/injection, schedule: Q01DX009 (ip), vehicle: saline) read?
**A.** 0 of 6

**Q.** And the survivor count [2]?
**A.** 1 of 6

**Q.** And the survivor count (dose: 225.0 mg/kg/injection, schedule: Q01DX009 (ip), vehicle: saline)?
**A.** 1 of 6

**Q.** And the survivor count [3]?
**A.** 1 of 6

**Q.** Which results are given for `CN(N=O)C(=O)NC(=O)NCCCl`?
**A.** T/C (dose: 18.0 mg/kg/injection, schedule: Q01DX001 (ip), vehicle: carboxymethylcellulose (CMC)): 134 % of control; T/C [4]: 130 % of control; T/C (dose: 60.0 mg/kg/injection, schedule: Q01DX001 (ip), vehicle: carboxymethylcellulose (CMC)): 134 % of control; T/C (dose: 93.0 mg/kg/injection, schedule: Q01DX001 (ip), vehicle: carboxymethylcellulose (CMC)): 136 % of control; T/C (dose: 187.0 mg/kg/injection, schedule: Q01DX001 (ip), vehicle: carboxymethylcellulose (CMC)): 146 % of control; survivor count (dose: 375.0 mg/kg/injection, schedule: Q01DX001 (ip), vehicle: carboxymethylcellulose (CMC)): 4 of 6

**Q.** With `Cc1ccccc1N=C(N)Nc1ccccc1C` as the compound, how does the survivor count [4] read?
**A.** 1 of 6

**Q.** And the survivor count (dose: 50.0 mg/kg/injection, schedule: Q01DX001 (ip), vehicle: carboxymethylcellulose (CMC))?
**A.** 0 of 4

**Q.** What about the survivor count (dose: 50.0 mg/kg/injection, schedule: Q01DX001 (ip), vehicle: other) of the same compound?
**A.** 2 of 6

**Q.** What about the survivor count (dose: 80.0 mg/kg/injection, schedule: Q01DX001 (ip), vehicle: carboxymethylcellulose (CMC)) of the same compound?
**A.** 0 of 6

**Q.** And the survivor count [5]?
**A.** 0 of 4

**Q.** What about the survivor count [6] of the same compound?
**A.** 0 of 4

**Q.** What about the survivor count [7] of the same compound?
**A.** 0 of 4

**Q.** `O/N=C(\c1ccccc1)C1C(/C(=N/O)c2ccccc2)C1c1ccccc1` (stereo not given) was tested. Which survivor count (dose: 200.0 mg/kg/injection, schedule: Q04DX002 (ip), vehicle: saline with Tween-80) did it give?
**A.** 3 of 3

**Q.** For `CN1CSCSC1`, which survivor count [8] is on record?
**A.** 0 of 6

**Q.** Which results are given for `c1cnc(OCCN2CC2)cn1`?
**A.** survivor count [5]: 2 of 6; survivor count [9]: 2 of 6; survivor count [6]: 0 of 6; survivor count [7]: 0 of 6

**Q.** For `CCOC(=O)N1N=C([P+](c2ccccc2)(c2ccccc2)c2ccccc2)CC1(c1ccccc1)c1ccccc1`, which survivor count [9] is on record?
**A.** 2 of 6

**Q.** And the survivor count [10]?
**A.** 0 of 6

**Q.** And the survivor count [11]?
**A.** 0 of 6

**Q.** For `O=C(O)c1ccc([N+](=O)[O-])cc1O`, which survivor count [7] is on record?
**A.** 4 of 4

**Q.** Which survivor count [12] does the source give for `CC1(C)CC(=O)C=C(NC2CCCCC2)C1` here?
**A.** 3 of 6

**Q.** Which survivor count (dose: 80.0 mg/kg/injection, schedule: Q01DX015 (ip), vehicle: carboxymethylcellulose (CMC)) does the source give for `OC1CCCC2CCC[N-]C12.OC1CCCC2CCC[N-]C12.[O]=[V][OH]` (stereo not given) here?
**A.** 5 of 6

**Q.** And the survivor count [9]?
**A.** 2 of 6

**Q.** What about the survivor count (dose: 120.0 mg/kg/injection, schedule: Q01DX015 (ip), vehicle: carboxymethylcellulose (CMC)) of the same compound?
**A.** 0 of 6

**Q.** What about the survivor count [10] of the same compound?
**A.** 1 of 6

**Q.** What about the survivor count [11] of the same compound?
**A.** 0 of 6

**Q.** What does the source list for `Cl/C=C(\Cl)CCl`?
**A.** survivor count [13]: 5 of 6; survivor count [14]: 2 of 6

**Q.** `CCOC(=O)NCC(C)(CCN1CCOCC1)c1cccc2ccccc12` (stereo not given) was tested. Which survivor count (dose: 200.0 mg/kg/injection, schedule: Q01DX009 (ip), vehicle: Klucel (hydroxypropylcellulose) (HPC)) did it give?
**A.** 0 of 6

**Q.** What about the survivor count (dose: 400.0 mg/kg/injection, schedule: Q01DX009 (ip), vehicle: Klucel (hydroxypropylcellulose) (HPC)) of the same compound?
**A.** 0 of 6

**Q.** `O=S(=O)(NS(=O)(=O)c1ccc(Cl)cc1)c1ccc(Cl)cc1` was tested. Which survivor count [12] did it give?
**A.** 1 of 6

**Q.** How did the survivor count [8] turn out when `C1=CC2(OCCO2)C2CC=CC3(OCCO3)C2C1` (stereo not given) was run?
**A.** 3 of 6

**Q.** What about the survivor count [15] of the same compound?
**A.** 2 of 6

**Q.** How did the survivor count (dose: 100.0 mg/kg/injection, schedule: Q04DX002 (ip), vehicle: saline) turn out when `CCN(CC)CC(=O)NCC(CCCN(C)C)(CCCN(C)C)c1cccc2ccccc12` was run?
**A.** 3 of 3

**Q.** Which survivor count [2] does the source give for `COP(=O)(OC)OCc1cnc(SC)nc1N` here?
**A.** 3 of 6

**Q.** And the survivor count [3]?
**A.** 1 of 6

**Q.** For `CC1=C(C)C2(C)C1(C)C1(C)C(C)=C(C)C21C` (stereo not given), which survivor count (dose: 400.0 mg/kg/injection, schedule: Q01DX009 (ip), vehicle: acetone) is on record?
**A.** 6 of 6

**Q.** With `Cc1nc(SCc2ccccc2)nc(N)c1CN` as the compound, how does the survivor count (dose: 400.0 mg/kg/injection, schedule: Q01DX001 (ip), vehicle: Klucel (hydroxypropylcellulose) (HPC)) read?
**A.** 0 of 6

**Q.** Which results are given for `C(=N\Nc1nn[nH]n1)/c1ccccc1`?
**A.** survivor count [13]: 3 of 6; survivor count [14]: 2 of 6

**Q.** Which results are given for `CN1C(=O)CC(C(=O)CBr)(c2ccccc2)C1=O` (stereo not given)?
**A.** survivor count [16]: 0 of 3 and 3 of 3; survivor count [17]: 0 of 3; survivor count [18]: 0 of 3

**Q.** Which results are given for `CCC(=O)OC1(c2ccccc2)CCN(C/C=C/c2ccc(F)cc2)CC1`?
**A.** survivor count (dose: 100.0 mg/kg/injection, schedule: Q01DX009 (ip), vehicle: saline with Tween-80): 6 of 6; survivor count [13]: 3 of 6; survivor count [14]: 0 of 6

**Q.** What does the source list for `COc1ccc2ccc[n+](C)c2c1`?
**A.** survivor count [16]: 1 of 6; survivor count [17]: 0 of 6; survivor count [18]: 0 of 6

**Q.** For `CCOC(=O)c1cc(-c2ccccc2)c(-c2ccccc2)c(-c2ccccc2)c1-c1ccccc1`, which survivor count [7] is on record?
**A.** 2 of 4

**Q.** `CC1CC([O-])=N/[N+]1=C\c1ccccc1` (stereo not given) was tested. Which survivor count [14] did it give?
**A.** 0 of 6

**Q.** For `CC(C)C1C(C(=O)O)NC(=O)C1C(=O)O` (stereo not given), which survivor count (dose: 50.0 mg/kg/injection, schedule: Q01DX009 (ip), vehicle: Klucel (hydroxypropylcellulose) (HPC)) is on record?
**A.** 6 of 6

**Q.** And the survivor count (dose: 100.0 mg/kg/injection, schedule: Q04DX003 (ip), vehicle: Klucel (hydroxypropylcellulose) (HPC))?
**A.** 6 of 6

**Q.** What about the survivor count [12] of the same compound?
**A.** 6 of 6

**Q.** With `CCCCCCCCCCCC[N+](C)(C)Cc1ccccc1` (tested in a mixture with another compound) as the compound, how does the survivor count (dose: 16.0 mg/kg/injection, schedule: Q01DX015 (ip), vehicle: saline) read?
**A.** 1 of 6

**Q.** `C=CCOc1cc[n+]([O-])cc1` was tested. Which survivor count [11] did it give?
**A.** 0 of 6

**Q.** Which results are given for `CCOC(=O)NCC(CCCCN(C)C)(c1cccc2ccccc12)C(C)CC` (stereo not given)?
**A.** survivor count [19]: 1 of 6; survivor count [8]: 0 of 6; survivor count [15]: 0 of 6

**Q.** Which survivor count [11] does the source give for `O=C(O)/C(S)=C\c1ccc(Cl)cc1` here?
**A.** 2 of 4

**Q.** What does the source list for `O=C1C(=O)c2ccccc2-c2ccccc21.O=C1C(=O)c2ccccc2-c2ccccc21.[Hg]`?
**A.** survivor count (dose: 12.5 mg/kg/injection, schedule: Q04DX003 (ip), vehicle: saline with Tween-80): 1 of 6; survivor count (dose: 25.0 mg/kg/injection, schedule: Q04DX003 (ip), vehicle: saline with Tween-80): 1 of 6

**Q.** `C#CCSC(=N)N` was tested. Which survivor count [19] did it give?
**A.** 0 of 6

**Q.** And the survivor count [2]?
**A.** 0 of 6

**Q.** What about the survivor count [3] of the same compound?
**A.** 0 of 6

**Q.** Which results are given for `Cc1nnc(NS(=O)(=O)c2ccc(N=Nc3c(N)nc(N)[nH]c3=O)cc2)s1`?
**A.** survivor count (dose: 80.0 mg/kg/injection, schedule: Q01DX001 (ip), vehicle: saline): 3 of 6; survivor count [9]: 0 of 6; survivor count [10]: 1 of 6; survivor count [11]: 2 of 6

**Q.** Which survivor count [14] does the source give for `CCOC(=O)c1c[nH]c2cc(OC)ccc2c1=O` here?
**A.** 6 of 6

**Q.** With `CC(C)(C)OC(=O)NCCCCC(NC(=O)OCc1ccccc1)C(=O)Oc1ccc([N+](=O)[O-])cc1` (stereo not given) as the compound, how does the survivor count [14] read?
**A.** 6 of 6

**Q.** For `O=c1sc2ccccc2n1-c1ccccc1`, which survivor count [12] is on record?
**A.** 6 of 6

**Q.** With `CCC(C)C(C(=O)OCCN(C)C)c1ccccc1` (stereo not given) as the compound, how does the survivor count [18] read?
**A.** 4 of 6
